Source: PubChem BioAssay AID588590 (National Center for Advancing Translational Sciences (NCATS), 2011)
Among all 390,000 compounds or so, about 4,000 (1%) were called active. Inconclusive results, whose numbers are uncertain, are shown with a selection of clear calls. The call rests on the fitted dose curve; in most records, active means well fitted inhibition curve with a large enough effect; inconclusive means small, poorly fitted or top-dose-only effect, or another doubt; inactive means no such curve, though single readings can be large or run the other way. Where the call is inconclusive, the potency comes from a doubtful curve fit.

By UniProt entry, the sequences of proteins in these tests, tags left out. Where a name states a change or a piece, a line headed by the entry shows the natural chain unless it says otherwise.
UniProt Q9UNA4: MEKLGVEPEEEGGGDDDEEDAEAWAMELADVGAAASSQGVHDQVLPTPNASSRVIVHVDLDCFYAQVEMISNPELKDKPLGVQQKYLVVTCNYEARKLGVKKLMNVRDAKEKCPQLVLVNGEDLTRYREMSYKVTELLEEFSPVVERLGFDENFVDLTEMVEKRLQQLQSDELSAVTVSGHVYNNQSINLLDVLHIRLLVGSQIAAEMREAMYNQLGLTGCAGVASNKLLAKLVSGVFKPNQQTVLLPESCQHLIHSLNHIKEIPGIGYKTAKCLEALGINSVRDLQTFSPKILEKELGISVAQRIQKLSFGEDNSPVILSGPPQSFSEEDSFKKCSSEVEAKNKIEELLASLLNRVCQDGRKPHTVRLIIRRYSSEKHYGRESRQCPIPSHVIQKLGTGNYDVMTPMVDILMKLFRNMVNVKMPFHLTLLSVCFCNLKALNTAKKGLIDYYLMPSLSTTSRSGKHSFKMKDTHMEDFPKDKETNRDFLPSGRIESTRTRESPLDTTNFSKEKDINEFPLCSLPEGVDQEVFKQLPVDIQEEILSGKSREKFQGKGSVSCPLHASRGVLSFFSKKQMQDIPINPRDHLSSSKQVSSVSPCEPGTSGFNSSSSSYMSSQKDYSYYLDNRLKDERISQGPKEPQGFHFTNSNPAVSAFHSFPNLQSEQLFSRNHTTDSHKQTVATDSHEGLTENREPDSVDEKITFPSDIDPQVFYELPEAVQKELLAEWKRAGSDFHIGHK

Target: DNA polymerase iota (Homo sapiens) (UniProt Q9UNA4)
Assay: qHTS for Inhibitors of Polymerase Iota
Settings: Pol iota fluorescent replication assay, 10 min; series mostly up to 115 µM; activity, negative = inhibition: at the top concentration
In short: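 Pol iota at 10 nM preincubated 15 min with compounds at room temperature; reaction started with fluorescent substrate, 50 nM final. Fluorescence read kinetically at 0 and 10 min; buffer-only wells as negative control.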
Potency means the concentration at half of the fitted maximal effect.

**Q.** With `COc1ccc2c(c1)OC1=C(C(=O)CCC1)C2C1=C(O)CCCC1=O` (configuration not stated) as the molecule, how does the Potency read?
**A.** Its Potency is inconclusive: 3.98 µM [inhibitor, partial curve, poor fit].

**Q.** `CCOC(=O)N1CCC(NC(=O)c2cnn3c(C(F)(F)F)cc(-c4cccc(OC)c4)nc23)CC1` was tested. Which Potency did it give?
**A.** The Potency was inconclusive: 17.8 µM [inhibitor, partial curve, poor fit].

**Q.** For `COc1cc(S(=O)(=O)NCCc2c(C)[nH]c3ccccc23)c(C)cc1C`, which Potency is on record?
**A.** The Potency was inconclusive: 28.2 µM [inhibitor, single point].

**Q.** `CC(=O)C1CCC2C3CC=C4CC(SC(=N)N)CCC4(C)C3CCC12C` (configuration not stated) was tested. Which “activity, negative = inhibition” value did it give?
**A.** The value was inactive: 5.61%.

**Q.** Which “activity, negative = inhibition” value does the source give for `Cc1cccc(-n2c(CNC(=O)c3cccc(F)c3)nnc2SCC(=O)Nc2ccccc2F)c1` here?
**A.** The value was inactive: -3.32%.

**Q.** How did the Potency turn out when `CC1(c2ccc3c(c2)OCCO3)NC(=O)N(CC(=O)c2ccc[nH]2)C1=O` (configuration not stated) was run?
**A.** The Potency was inconclusive: 56.2 µM [inhibitor, partial curve, poor fit].

**Q.** How did the Potency turn out when `COc1cccc(OCCOc2ccc(/C=C3/SC(=S)NC3=O)cc2)c1` was run?
**A.** Its Potency is inconclusive: 50.1 µM [inhibitor, partial curve, poor fit].

**Q.** How did the Potency turn out when `O=C(CNC(=O)c1cc2c(s1)CCC2)Nc1ccccc1Br` was run?
**A.** The Potency was inconclusive: 15.8 µM [inhibitor, partial curve, poor fit].

**Q.** With `O=C(NCCN1CCCC1)C1CCN(S(=O)(=O)N2CCC3(CC2)OCCO3)CC1` as the molecule, how does the Potency read?
**A.** Its Potency is inconclusive: 112 µM [inhibitor, partial curve, poor fit].

**Q.** With `Cc1ccc(OCC(=O)N2CCCC(CO)(CCOc3ccccc3)C2)cc1` (configuration not stated) as the molecule, how does the “activity, negative = inhibition” value read?
**A.** The value was inactive: 19%.

**Q.** With `C[C@@H](O)C1NC(=O)[C@H](CCCCN)NC(=O)c2cc([N+](=O)[O-])cc(I)c2OCC[C@@H](C(N)=O)NC1=O` (some centres not stated) as the molecule, how does the Potency read?
**A.** The Potency was inconclusive: 1.12 µM [inhibitor, full curve, poor fit].

**Q.** Which Potency does the source give for `CCOC(=O)c1csc(NC(=O)CN2CCN(C)CC2)n1` here?
**A.** The Potency was inconclusive: 79.4 µM [inhibitor, partial curve, poor fit].

**Q.** How did the Potency turn out when `COc1ccccc1OCc1nc(C#N)c(NCCCn2ccnc2)o1` was run?
**A.** Its Potency is inconclusive: 100 µM [inhibitor, single point].

**Q.** `COc1ccccc1Cc1nc2ccccc2nc1SCC(=O)N1CCN(c2ccccc2)CC1` was tested. Which “activity, negative = inhibition” value did it give?
**A.** Its value is inactive: -19.5%.

**Q.** How did the “activity, negative = inhibition” value turn out when `Cc1ccc(C(C)C)c(OCCSc2nc3ccccc3n2CC(O)CO)c1` (configuration not stated) was run?
**A.** The value was inactive: 4.19%.

**Q.** `O=C(NCc1ccco1)c1ccc2c(c1)N(Cc1ccc(Cl)cc1)C(=O)c1ccccc1S2` was tested. Which Potency did it give?
**A.** The Potency was inconclusive: 14.1 µM [inhibitor, partial curve, poor fit].

**Q.** `C[N+]1(CC(=O)c2ccc(Cl)cc2)CCOCC1` was tested. Which Potency did it give?
**A.** The Potency was inconclusive: 89.1 µM [inhibitor, single point].

**Q.** `O=C(O)c1cccc(N/N=C/C2=C(Cl)c3cc(Cl)ccc3SC2)c1` was tested. Which Potency did it give?
**A.** Its Potency is inconclusive: 50.1 µM [inhibitor, partial curve, poor fit].

**Q.** Which “activity, negative = inhibition” value does the source give for `CCCN1CNc2c(c(=O)[nH]c(=O)n2CCc2ccc(OC)c(OC)c2)C1` here?
**A.** The value was inactive: -6.21%.

**Q.** With `FC(F)(F)c1ccccc1NC(=S)N1CCCC1` as the molecule, how does the Potency read?
**A.** The Potency was inconclusive: 89.1 µM [inhibitor, partial curve, poor fit].

**Q.** How did the “activity, negative = inhibition” value turn out when `Nc1cccc2cccc([N+](=O)[O-])c12` was run?
**A.** The value was inactive: 4.83%.

**Q.** With `COc1ccc(OCC(=O)Nc2ccccc2OC)cc1` as the molecule, how does the “activity, negative = inhibition” value read?
**A.** Its value is inactive: 6.85%.

**Q.** For `Cc1cc(C)cc(Oc2nc3c(C)cccn3c(=O)c2/C=C(\C#N)c2nc3ccccc3s2)c1`, which Potency is on record?
**A.** The Potency was inconclusive: 10 µM [inhibitor, full curve, poor fit].

**Q.** Which Potency does the source give for `CCN1CCN(C(=O)C2CCC(CNS(=O)(=O)c3ccc(NC(C)=O)cc3)CC2)CC1` (configuration not stated) here?
**A.** The Potency was inconclusive: 10 µM [inhibitor, full curve, poor fit].

**Q.** Which Potency does the source give for `COc1ccc(NC(=O)CS(=O)c2ccccc2Cl)cc1` (configuration not stated) here?
**A.** The Potency was inconclusive: 50.1 µM [inhibitor, partial curve, poor fit].

**Q.** How did the “activity, negative = inhibition” value turn out when `Cc1cc(C)cc(-n2c(C)cc(/C=N\NC(=O)COc3cccc4cccnc34)c2C)c1` was run?
**A.** The value was inactive: 9.48%.

**Q.** For `Cc1ccc2oc(=O)c(S(=O)(=O)c3ccc(C(C)(C)C)cc3)cc2c1`, which “activity, negative = inhibition” value is on record?
**A.** The value was inactive: 22.5%.

**Q.** `CCOc1ccccc1/C=N/NC(=O)c1cccc(S(=O)(=O)N2CCOCC2)c1` was tested. Which Potency did it give?
**A.** Its Potency is inconclusive: 100 µM [inhibitor, single point].

**Q.** Which Potency does the source give for `Cc1cc(NC(=O)CN2C(=O)c3cccnc3Sc3ccccc32)ccc1Br` here?
**A.** The Potency was inconclusive: 89.1 µM [inhibitor, single point].

**Q.** For `COc1cc(OC)c(C(=O)/C=C/c2ccccc2)c(O)c1O`, which Potency is on record?
**A.** The Potency was inconclusive: 5.01 µM [inhibitor, partial curve].

**Q.** For `COc1ccc(OC)c2sc(N(Cc3cccnc3)C(=O)c3ccco3)nc12`, which Potency is on record?
**A.** The Potency was inconclusive: 15.8 µM [inhibitor, partial curve].

**Q.** With `COc1ccc(/C=C2\SC(=O)N(CC(=O)Nc3ccc(O)cc3)C2=O)cc1OC` as the molecule, how does the Potency read?
**A.** The Potency was inconclusive: 28.2 µM [inhibitor, single point].

**Q.** Which Potency does the source give for `CCN(CC)S(=O)(=O)c1ccc2nc(NC(=O)c3cncc(Br)c3)sc2c1` here?
**A.** Its Potency is inconclusive: 89.1 µM [inhibitor, partial curve, poor fit].

**Q.** How did the Potency turn out when `N#Cc1ccsc1NC(=O)c1cccc([N+](=O)[O-])c1` was run?
**A.** The Potency was inconclusive: 28.2 µM [inhibitor, partial curve, poor fit].

**Q.** How did the Potency turn out when `CC(C)CNC(=O)c1ccccc1NC(=O)c1ccccc1N(C)S(=O)(=O)c1ccccc1` was run?
**A.** The Potency was inconclusive: 79.4 µM [inhibitor, single point].

**Q.** For `CCOC(=O)c1[nH]c(C)c(C(=O)N(C)Cc2ccccc2)c1C`, which Potency is on record?
**A.** The Potency was inconclusive: 100 µM [inhibitor, partial curve, poor fit].

**Q.** How did the Potency turn out when `COc1cc(-c2nnc(SCc3cc(=O)oc4cc(O)c(O)cc34)o2)cc(OC)c1OC` was run?
**A.** Its Potency is active: 1.12 µM.

**Q.** `Cc1ccc2nc3[nH]c(=O)[nH]c(=O)c3c(N)c2c1` was tested. Which “activity, negative = inhibition” value did it give?
**A.** The value was inactive: 18.8%.

**Q.** For `Cc1cc(C)cc(N2C(=O)N(Cc3cccc(F)c3)c3ccccc3S2(=O)=O)c1`, which “activity, negative = inhibition” value is on record?
**A.** Its value is inactive: 4.9%.

**Q.** How did the Potency turn out when `CCOc1ccc(/C=C/[N+](=O)[O-])c2ccccc12` was run?
**A.** The Potency was inconclusive: 15.8 µM [inhibitor, partial curve, poor fit].

**Q.** For `Cc1ccc(C(=O)c2cn(Cc3ccc(Cl)cc3)c3nc(C)ccc3c2=O)cc1`, which “activity, negative = inhibition” value is on record?
**A.** Its value is inactive: 7.12%.

**Q.** Which Potency does the source give for `COc1cc2nc(N3CCCN(C)CC3)nc(N3CCN(C)CC3)c2cc1OC` here?
**A.** The Potency was inconclusive: 3.98 µM [inhibitor, partial curve, poor fit].
